In PMC12317982 one finds binding data, which are given here for 2 molecules.

The target of the experiment is T1, EMC1-FLAG (human) (UniProt Q8N766).
T1 sequence: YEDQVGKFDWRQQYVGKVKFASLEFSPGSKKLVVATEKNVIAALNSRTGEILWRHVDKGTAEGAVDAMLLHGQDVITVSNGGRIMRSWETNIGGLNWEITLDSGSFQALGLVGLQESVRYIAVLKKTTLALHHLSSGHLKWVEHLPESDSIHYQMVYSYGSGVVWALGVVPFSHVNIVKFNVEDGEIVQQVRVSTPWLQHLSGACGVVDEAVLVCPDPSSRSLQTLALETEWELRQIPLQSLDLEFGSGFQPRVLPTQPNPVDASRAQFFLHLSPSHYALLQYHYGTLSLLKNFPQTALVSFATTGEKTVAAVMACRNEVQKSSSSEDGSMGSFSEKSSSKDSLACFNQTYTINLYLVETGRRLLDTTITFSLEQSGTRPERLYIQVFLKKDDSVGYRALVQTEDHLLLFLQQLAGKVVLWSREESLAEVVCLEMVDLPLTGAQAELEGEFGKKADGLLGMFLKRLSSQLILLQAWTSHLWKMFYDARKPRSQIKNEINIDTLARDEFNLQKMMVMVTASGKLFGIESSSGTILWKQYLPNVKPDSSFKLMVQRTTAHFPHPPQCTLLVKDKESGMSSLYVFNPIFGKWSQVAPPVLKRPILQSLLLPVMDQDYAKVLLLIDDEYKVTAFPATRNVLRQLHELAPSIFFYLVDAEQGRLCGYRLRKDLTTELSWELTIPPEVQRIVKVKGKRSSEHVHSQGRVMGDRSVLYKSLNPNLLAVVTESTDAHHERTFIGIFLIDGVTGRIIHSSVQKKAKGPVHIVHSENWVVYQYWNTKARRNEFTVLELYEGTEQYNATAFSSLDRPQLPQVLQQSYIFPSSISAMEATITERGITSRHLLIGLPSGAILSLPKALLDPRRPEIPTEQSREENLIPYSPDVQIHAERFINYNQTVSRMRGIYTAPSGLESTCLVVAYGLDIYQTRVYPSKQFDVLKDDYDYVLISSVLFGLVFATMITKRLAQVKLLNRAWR
The experiment can be described thus: co-IP; IP against FLAG (EMC1), immunoblot against Strep (clients), normalised to EMC1 wt. (Immunoblotting shows a protein as a band on a membrane.)

No constants are given. Whether binding was seen depends on the method and setting. Binding seen in cells or lysates may run through a third protein. Some entries that bind do so weakly or less than the wild type. Sequences can lack the tags named with a protein.

B1: BCAP31, Strep-tagged (protein, UniProt P51572 1-246)
chain: MSLQWTAVATFLYAEVFVVLLLCIPFISPKRWQKIFKSRLVELLVSYGNTFFVVLIVILVLLVIDAVREIRKYDDVTEKVNLQNNPGAMEHFHMKLFRAQRNLYIAGFSLLLSFLLRRLVTLISQQATLLASNEAFKKQAESASEAAKKYMEENDQLKKGAAVDGGKLDVGNAEVKLEEENRSLKADLQKLKDELASTKQKLEKAENQVLAMRKQSEGLTKEYDRLLEEHAKLQAAVDGPMDKKEE
Consider B1, for which the binding entry is given as “binds”.

B2: TMEM38B, Strep-tagged (protein, UniProt Q9NVV0 1-291)
chain: MDSPWDELALAFSRTSMFPFFDIAHYLVSVMAVKRQPGAAALAWKNPISSWFTAMLHCFGGGILSCLLLAEPPLKFLANHTNILLASSIWYITFFCPHDLVSQGYSYLPVQLLASGMKEVTRTWKIVGGVTHANSYYKNGWIVMIAIGWARGAGGTIITNFERLVKGDWKPEGDEWLKMSYPAKVTLLGSVIFTFQHTQHLAISKHNLMFLYTIFIVATKITMMTTQTSTMTFAPFEDTLSWMLFGWQQPFSSCEKKSEAKSPSNGVGSLASKPVDVASDNVKKKHTKKNE
On to B2, for which the binding entry is “binds”.
